The source of these data is the supplement of paper PMC10849652.

Protein sequences, listed by entry. Tags and fused reporters are not part of them. Lines headed by an entry give the natural chain unless they say otherwise; changes in a name come on top.
UniProt Q6IPU0: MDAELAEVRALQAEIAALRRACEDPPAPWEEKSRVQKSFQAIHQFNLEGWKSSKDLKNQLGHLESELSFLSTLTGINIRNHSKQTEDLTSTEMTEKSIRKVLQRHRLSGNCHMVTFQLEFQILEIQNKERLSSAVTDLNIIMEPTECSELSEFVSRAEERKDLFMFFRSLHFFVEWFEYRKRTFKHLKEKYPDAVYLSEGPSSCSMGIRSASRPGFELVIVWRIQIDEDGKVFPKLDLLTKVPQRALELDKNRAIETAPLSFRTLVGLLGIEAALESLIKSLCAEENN
UniProt O94986: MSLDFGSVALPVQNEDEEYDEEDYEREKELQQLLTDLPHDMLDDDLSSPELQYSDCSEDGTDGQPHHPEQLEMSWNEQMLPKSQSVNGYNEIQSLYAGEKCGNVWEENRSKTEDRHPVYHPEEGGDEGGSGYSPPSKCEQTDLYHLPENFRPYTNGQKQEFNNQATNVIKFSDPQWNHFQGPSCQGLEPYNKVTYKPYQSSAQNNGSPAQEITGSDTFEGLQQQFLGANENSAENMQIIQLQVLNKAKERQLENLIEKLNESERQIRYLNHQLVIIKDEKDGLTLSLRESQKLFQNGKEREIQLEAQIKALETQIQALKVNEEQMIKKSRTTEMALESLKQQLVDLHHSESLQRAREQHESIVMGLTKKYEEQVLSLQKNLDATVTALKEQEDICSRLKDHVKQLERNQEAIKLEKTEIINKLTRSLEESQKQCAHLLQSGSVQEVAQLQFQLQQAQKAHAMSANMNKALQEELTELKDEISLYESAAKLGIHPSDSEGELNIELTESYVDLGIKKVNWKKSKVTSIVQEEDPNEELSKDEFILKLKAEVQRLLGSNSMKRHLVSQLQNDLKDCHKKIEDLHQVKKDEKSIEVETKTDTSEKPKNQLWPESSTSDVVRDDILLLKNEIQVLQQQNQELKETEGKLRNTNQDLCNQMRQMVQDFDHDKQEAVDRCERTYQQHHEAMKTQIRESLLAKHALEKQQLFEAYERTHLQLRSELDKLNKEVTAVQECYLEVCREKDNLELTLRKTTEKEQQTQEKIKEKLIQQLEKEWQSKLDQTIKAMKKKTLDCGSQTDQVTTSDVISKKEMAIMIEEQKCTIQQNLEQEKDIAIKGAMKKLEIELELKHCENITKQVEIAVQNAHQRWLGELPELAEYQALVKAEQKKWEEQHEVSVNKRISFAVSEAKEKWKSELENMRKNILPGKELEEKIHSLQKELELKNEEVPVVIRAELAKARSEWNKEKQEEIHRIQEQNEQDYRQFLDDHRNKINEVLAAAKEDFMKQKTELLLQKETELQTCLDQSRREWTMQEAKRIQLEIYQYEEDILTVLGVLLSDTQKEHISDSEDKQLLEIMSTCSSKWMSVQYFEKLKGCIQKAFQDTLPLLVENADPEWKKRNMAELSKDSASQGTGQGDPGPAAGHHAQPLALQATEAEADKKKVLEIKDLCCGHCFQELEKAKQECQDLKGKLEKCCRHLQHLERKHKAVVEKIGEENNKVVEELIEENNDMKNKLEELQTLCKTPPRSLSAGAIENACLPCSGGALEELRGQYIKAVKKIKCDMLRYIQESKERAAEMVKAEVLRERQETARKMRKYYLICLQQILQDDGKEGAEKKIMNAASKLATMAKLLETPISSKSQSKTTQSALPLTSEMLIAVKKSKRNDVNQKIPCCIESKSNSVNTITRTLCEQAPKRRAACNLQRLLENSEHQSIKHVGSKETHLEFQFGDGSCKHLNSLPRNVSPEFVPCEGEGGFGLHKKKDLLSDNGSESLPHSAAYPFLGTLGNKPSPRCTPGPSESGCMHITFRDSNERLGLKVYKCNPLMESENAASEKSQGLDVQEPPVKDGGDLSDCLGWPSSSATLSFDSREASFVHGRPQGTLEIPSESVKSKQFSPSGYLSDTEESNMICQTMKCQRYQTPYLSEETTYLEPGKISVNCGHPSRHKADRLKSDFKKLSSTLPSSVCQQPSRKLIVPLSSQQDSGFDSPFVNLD
UniProt Q9NSP4: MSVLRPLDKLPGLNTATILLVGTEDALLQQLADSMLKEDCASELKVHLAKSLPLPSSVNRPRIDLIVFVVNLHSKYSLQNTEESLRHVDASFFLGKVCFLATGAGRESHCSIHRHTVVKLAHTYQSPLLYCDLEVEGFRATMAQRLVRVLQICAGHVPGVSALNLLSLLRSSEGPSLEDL
UniProt Q9H3Q1: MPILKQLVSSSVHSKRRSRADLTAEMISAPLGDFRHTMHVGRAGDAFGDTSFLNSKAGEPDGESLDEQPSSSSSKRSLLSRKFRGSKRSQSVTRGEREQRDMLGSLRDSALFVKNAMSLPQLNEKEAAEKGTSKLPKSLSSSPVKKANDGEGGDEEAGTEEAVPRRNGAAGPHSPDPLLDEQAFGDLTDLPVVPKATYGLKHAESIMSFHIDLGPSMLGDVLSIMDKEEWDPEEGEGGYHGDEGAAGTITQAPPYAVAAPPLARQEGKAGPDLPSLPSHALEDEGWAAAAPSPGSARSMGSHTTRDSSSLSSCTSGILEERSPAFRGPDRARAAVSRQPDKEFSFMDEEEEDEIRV
UniProt P53567: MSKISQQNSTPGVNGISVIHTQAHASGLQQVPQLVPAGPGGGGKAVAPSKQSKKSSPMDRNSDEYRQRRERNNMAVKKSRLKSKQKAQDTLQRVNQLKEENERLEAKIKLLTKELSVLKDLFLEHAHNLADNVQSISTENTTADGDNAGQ
UniProt Q6P2H3: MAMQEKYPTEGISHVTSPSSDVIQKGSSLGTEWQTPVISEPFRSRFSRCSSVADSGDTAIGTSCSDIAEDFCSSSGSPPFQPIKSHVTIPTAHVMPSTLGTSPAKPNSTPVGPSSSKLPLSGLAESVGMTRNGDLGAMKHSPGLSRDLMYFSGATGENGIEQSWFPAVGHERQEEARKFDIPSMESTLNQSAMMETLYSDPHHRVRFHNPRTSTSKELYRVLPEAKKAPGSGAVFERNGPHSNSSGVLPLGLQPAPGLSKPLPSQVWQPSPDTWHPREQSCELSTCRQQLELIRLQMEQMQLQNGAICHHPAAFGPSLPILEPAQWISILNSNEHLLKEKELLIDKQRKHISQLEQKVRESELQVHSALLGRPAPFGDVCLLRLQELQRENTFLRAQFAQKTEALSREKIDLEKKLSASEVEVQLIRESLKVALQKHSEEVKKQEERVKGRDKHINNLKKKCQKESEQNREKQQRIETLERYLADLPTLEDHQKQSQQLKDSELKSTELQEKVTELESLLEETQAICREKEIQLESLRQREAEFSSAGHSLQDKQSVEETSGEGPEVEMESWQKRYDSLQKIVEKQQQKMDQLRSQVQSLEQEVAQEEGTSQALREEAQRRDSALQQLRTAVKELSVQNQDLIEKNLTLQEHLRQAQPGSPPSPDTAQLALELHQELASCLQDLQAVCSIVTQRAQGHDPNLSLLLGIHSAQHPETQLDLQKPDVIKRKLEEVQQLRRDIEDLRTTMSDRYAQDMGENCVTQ
UniProt O14646: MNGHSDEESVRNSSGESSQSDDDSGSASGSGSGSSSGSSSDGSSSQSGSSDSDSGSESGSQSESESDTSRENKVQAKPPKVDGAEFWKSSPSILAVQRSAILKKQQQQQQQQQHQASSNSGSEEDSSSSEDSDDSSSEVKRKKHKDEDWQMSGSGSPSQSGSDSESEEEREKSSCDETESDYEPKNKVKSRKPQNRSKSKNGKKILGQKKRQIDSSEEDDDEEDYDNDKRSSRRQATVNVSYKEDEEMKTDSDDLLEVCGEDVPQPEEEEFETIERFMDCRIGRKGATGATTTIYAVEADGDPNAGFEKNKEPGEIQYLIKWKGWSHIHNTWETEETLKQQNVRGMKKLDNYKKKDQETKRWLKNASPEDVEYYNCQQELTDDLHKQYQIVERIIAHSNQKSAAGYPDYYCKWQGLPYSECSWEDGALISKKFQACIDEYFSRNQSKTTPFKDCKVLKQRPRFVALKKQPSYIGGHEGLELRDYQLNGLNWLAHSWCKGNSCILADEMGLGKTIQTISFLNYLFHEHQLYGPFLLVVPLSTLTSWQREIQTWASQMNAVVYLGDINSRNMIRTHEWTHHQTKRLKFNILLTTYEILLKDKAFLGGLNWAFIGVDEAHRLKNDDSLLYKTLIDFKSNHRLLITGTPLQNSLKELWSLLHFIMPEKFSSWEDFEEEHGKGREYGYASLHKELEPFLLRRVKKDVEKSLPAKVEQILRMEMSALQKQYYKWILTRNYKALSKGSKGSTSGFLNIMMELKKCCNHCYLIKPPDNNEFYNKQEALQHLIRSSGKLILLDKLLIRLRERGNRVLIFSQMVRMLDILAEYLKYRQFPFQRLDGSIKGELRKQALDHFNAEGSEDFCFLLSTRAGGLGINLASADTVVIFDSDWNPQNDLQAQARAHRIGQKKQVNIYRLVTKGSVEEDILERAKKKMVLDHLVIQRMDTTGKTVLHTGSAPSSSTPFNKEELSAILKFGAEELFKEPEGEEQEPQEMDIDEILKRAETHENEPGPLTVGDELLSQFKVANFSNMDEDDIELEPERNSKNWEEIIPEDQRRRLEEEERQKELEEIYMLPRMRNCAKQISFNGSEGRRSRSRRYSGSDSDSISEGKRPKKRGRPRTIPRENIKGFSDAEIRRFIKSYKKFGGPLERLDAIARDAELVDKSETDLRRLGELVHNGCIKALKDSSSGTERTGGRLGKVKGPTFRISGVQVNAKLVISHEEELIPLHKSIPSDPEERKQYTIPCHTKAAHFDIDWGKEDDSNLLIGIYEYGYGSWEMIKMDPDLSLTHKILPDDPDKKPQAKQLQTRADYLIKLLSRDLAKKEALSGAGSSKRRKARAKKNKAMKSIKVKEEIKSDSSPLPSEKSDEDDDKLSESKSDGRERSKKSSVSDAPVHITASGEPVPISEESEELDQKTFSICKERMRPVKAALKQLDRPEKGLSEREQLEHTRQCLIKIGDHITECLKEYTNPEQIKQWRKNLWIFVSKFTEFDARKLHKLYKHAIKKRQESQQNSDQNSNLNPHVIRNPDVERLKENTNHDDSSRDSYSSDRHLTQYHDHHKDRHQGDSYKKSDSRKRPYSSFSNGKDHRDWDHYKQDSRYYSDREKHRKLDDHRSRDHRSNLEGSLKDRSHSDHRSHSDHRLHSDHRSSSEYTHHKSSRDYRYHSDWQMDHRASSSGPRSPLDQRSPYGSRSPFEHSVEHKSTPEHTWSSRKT
UniProt O75419: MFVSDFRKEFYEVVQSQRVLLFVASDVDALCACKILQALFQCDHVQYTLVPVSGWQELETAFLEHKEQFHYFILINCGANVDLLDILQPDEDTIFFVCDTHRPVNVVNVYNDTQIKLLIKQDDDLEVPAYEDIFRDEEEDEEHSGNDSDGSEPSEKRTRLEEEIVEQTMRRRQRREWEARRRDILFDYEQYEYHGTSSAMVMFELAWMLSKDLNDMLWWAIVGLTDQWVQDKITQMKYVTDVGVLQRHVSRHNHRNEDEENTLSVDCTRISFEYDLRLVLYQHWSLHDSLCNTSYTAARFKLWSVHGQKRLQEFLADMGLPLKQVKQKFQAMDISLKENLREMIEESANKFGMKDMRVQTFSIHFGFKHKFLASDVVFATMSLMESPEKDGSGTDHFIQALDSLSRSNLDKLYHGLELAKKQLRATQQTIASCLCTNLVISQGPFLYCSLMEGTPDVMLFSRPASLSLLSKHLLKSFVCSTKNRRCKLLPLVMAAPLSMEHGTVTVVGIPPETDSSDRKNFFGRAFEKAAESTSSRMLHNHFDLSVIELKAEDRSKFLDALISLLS
UniProt Q9H211: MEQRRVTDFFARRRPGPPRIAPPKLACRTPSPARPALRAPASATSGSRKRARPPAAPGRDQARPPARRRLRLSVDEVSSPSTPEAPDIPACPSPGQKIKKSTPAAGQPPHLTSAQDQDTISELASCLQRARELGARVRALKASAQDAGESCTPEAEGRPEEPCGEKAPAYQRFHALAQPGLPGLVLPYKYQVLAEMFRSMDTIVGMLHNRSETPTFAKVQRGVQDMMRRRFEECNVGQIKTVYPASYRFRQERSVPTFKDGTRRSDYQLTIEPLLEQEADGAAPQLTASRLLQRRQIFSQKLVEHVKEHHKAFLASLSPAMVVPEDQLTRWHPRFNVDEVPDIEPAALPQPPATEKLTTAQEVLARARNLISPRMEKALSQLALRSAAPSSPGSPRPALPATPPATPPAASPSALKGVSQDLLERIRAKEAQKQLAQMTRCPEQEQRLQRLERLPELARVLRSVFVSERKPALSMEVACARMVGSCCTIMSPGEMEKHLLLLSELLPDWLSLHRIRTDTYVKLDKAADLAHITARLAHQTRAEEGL
UniProt P49918: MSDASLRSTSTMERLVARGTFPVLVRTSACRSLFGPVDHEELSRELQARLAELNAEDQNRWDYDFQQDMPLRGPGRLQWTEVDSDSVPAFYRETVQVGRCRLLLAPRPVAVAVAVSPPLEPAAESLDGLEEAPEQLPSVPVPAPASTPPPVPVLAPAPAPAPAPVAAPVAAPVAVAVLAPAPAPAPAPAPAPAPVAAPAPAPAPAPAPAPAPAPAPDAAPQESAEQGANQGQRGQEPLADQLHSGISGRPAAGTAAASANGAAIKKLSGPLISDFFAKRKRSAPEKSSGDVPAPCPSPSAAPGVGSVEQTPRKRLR

The other results are listed elsewhere or left out.

Compound in the first test: C#Cc1cccc(Nc2ncnc3cc(OCCOC)c(OCCOC)cc23)c1 [erlotinib]
The test can be described thus: log2 fold change, soluble protein after heating vs DMSO (PISA); higher = thermal stabilisation; K562 cells, 10 uM, 30 min; active = over 0.2 and 3.5 SD of the protein, either way, in both replicates (recomputed). The procedure, abridged: (§1)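 Aliquots of K562 cells (2×10^6 cells/mL) treated with 10 μM compound for 30 min were heated for 3 min over 48°C-58°C. After pooling and extraction in PBS with 0.5% NP-40 at 4°C, soluble protein from a 21,000xg, 90 min spin was quantified by TMTpro 16plex LC-MS/MS with channel sums equalised. Thermal stability is expressed against control samples, from duplicates, as a log2 fold change.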
CENPP (UniProt Q6IPU0): the log2 fold change is inactive: 0.019.

Consider CEP41 (UniProt Q9BYV8), for which the log2 fold change is inactive: -0.087.

Take CDC42EP2 (UniProt O14613): the log2 fold change was inactive: 0.192.

As to CFB (UniProt P00751), the log2 fold change was inactive: -0.184.

On to CFL1 (UniProt E9PP50), for which the log2 fold change is inactive: 0.325.

With CEP250 (UniProt Q9BV73), the log2 fold change was inactive: -0.149.

Take CEP152 (UniProt O94986): the log2 fold change is inactive: 0.404.

For CHCHD5 (UniProt Q9BSY4), the log2 fold change was inactive: 0.038.

CENPM (UniProt Q9NSP4): the log2 fold change is inactive: -0.186.

Regarding CDC42EP4 (UniProt Q9H3Q1), the log2 fold change is inactive: 0.062.

Take CEP170 isoform 3 (UniProt Q5SW79): the log2 fold change is inactive: -0.002.

With CDC42BPG (UniProt Q6DT37), the log2 fold change is inactive: 0.082.

CENPX (UniProt A8MT69): the log2 fold change is inactive: 0.242.

In the case of CENPK (UniProt Q9BS16), the log2 fold change is inactive: 0.116.

As for CENPQ (UniProt Q7L2Z9), the log2 fold change is inactive: -0.137.

Compound in another test: C/C(=N\NC(=O)C1=CC(=CC=C1)S(=O)(=O)N2CCOCC2)/C3=C(C=CC(=C3)Cl)O
The test is described as above. Put shortly: as §1
In the case of CFAP47 (UniProt Q6ZTR5), the log2 fold change was active: -0.734.

With CHMP2A (UniProt M0R1T5), the log2 fold change was inactive: 0.073.

For the target CEBPG (UniProt P53567), the log2 fold change is inactive: -0.4.

As for CEP135 (UniProt Q66GS9), the log2 fold change was inactive: 0.04.

For CEP170B (UniProt Q9Y4F5), the log2 fold change was inactive: 0.036.

Take CEP85 (UniProt Q6P2H3): the log2 fold change is inactive: -0.192.

For CEP120 (UniProt Q8N960), the log2 fold change is inactive: -0.154.

For CEP128 (UniProt Q6ZU80), the log2 fold change is inactive: -0.163.

On to CEP350 (UniProt Q5VT06), for which the log2 fold change was inactive: 0.175.

CDSN (UniProt Q15517): the log2 fold change was inactive: -0.043.

Consider CHD1 (UniProt O14646), for which the log2 fold change is inactive: 0.132.

In the case of CDC45 isoform 3 (UniProt O75419), the log2 fold change was inactive: 0.12.

Compound in another test: C1=CC(=C(C=C1Cl)C2=NC3=NC=CN=C3C(=N2)NC4=CC=NC=C4)F
The description is as above. Put shortly: as §1
Regarding CFAP47 (UniProt Q6ZTR5), the log2 fold change is inactive: 0.053.

As to CEP135 (UniProt Q66GS9), the log2 fold change was inactive: -0.038.

Consider CENPP (UniProt Q6IPU0), for which the log2 fold change was inactive: -0.086.

With CDC6 (UniProt Q99741), the log2 fold change was inactive: -0.284.

As for CDK5RAP2 (UniProt Q96SN8), the log2 fold change is inactive: -0.138.

Regarding CHD8 (UniProt Q9HCK8), the log2 fold change is inactive: 0.069.

On to CDC42EP2 (UniProt O14613), for which the log2 fold change is inactive: -0.147.

Regarding CEP170B (UniProt Q9Y4F5), the log2 fold change is inactive: -0.288.

Turning to CENPV (UniProt Q7Z7K6), the log2 fold change is inactive: -0.51.

In the case of CEP250 (UniProt Q9BV73), the log2 fold change is inactive: -0.145.

Take CEP120 (UniProt Q8N960): the log2 fold change is inactive: 0.143.

As to CEP350 (UniProt Q5VT06), the log2 fold change was inactive: -0.153.

As for CDSN (UniProt Q15517), the log2 fold change was inactive: 0.144.

For the target CDC42EP4 (UniProt Q9H3Q1), the log2 fold change is inactive: 0.02.

On to CHFR (UniProt Q96EP1), for which the log2 fold change was inactive: 0.092.

As for CDT1 (UniProt Q9H211), the log2 fold change is inactive: -0.179.

On to CDKN1C (UniProt P49918), for which the log2 fold change was inactive: -0.079.

In the case of CHD1 (UniProt O14646), the log2 fold change is inactive: -0.44.

As for CENPQ (UniProt Q7L2Z9), the log2 fold change is inactive: 0.009.

As for CDC45 isoform 3 (UniProt O75419), the log2 fold change is inactive: -0.16.
